The values that follow come from doi:10.1101/2023.09.07.556733.

These are yes or no findings as the source states them, for the method shown. Binding seen in cells or lysates may run through a third protein. Binding calls can cover weak binding; strength is not graded here.

The target in the assay is Gαi2 (endogenous, cranial neural crest cells) (Xenopus tropicalis or Xenopus laevis (endogenous in cranial neural crest explants)). Kind of assay: proximity ligation.

B1: EB1 (protein, UniProt Q6P848 1-269)
chain: MAVNVYSTSVTSDNLSRHDMLAWINESLQLNLTKIEQLCSGSVYCQFMDMLFPGSVVLKKVKFQAKLEHEYIQNFKVLQAGFKKMGVDKIIPVDKLVKGKFQDNFEFVQWFKKFFDANYDGKDYDPVAARQGQESAPVPVLAAPVLNKPKKPLGSGNTAPQRTVPVQRTAVSNKPPAQGISKKPATVGNGDDESAELIQQINVLKITVEDLEKERDFYFGKLRNIELICQENEGESDPVLQRIIEILYATDEGFVIPDEGAPPEDQEEY
For B1, the binding entry is given as “binds”.
